Data reported in PubChem BioAssay AID504444 (National Center for Advancing Translational Sciences (NCATS), 2011).
“And” between values parts separate entries of the source, which are not always exact repeats. Equal entries are not always repeated. Screen size: about 360,000 compounds; about 7,500 (2.1%) were called active. This list was built around the results that the source calls inconclusive (neither active nor inactive); the mix of calls is not that of the screen. Calls come from the whole dose curve; as a rule, active = well fitted inhibition curve with a large enough effect; inconclusive = small, poorly fitted or top-dose-only effect, or effect the other way; inactive = flat fitted curve, though single readings scatter. Potencies beside an inconclusive call are fits to weak or partial responses and may not hold up.

Test: Nrf2 qHTS screen for inhibitors; note: nearly all actives have a fitted effect of over 60% in size
Conditions: A549 ARE-Fluc reporter, luciferase luminescence, 18-24 h; activity change, negative = inhibition: at 46 µM (top of the series)
In short: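 Nrf2 activity is the BugLite luminescence, read 15 min after reagent at room temperature, following CellTiter-Fluor cytotoxicity readout (30 min, 37C). Compound titrations were applied for 18-24 h to 5000 A549 ARE_Fluc cells/well in 5% FBS OPTI-MEM.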
% is set by controls: 0 for no effect and ±100 for the full control effect; potency is the fitted concentration of half-maximal effect.

Compound | activity change, negative = inhibition | Potency
CCn1cnc2cc(NC(=O)COc3ccc(C)cc3)ccc21 | inactive: 1.74% | –
CC(=O)Oc1c(I)cc(I)cc1C(=O)Nc1ccc(Cl)cc1 | – | active: 23.1 µM
Cn1c(=O)cc(OCCCC(=O)N2CCN(c3ccccc3)CC2)c2ccccc21 | – | inconclusive: 1.03 µM [falling, full curve, poor fit]
CCC(=O)Nc1ccc(-c2nnc(-c3ccccc3)o2)cc1 | – | inconclusive: 0.58 µM [activator, full curve, poor fit]
S=C(c1cn(CCOc2cccc3ccccc23)c2ccccc12)N1CCCC1 | – | inconclusive: 23.1 µM [falling, single point]
CC(C)(C)n1nnnc1C(c1ccccc1F)N(Cc1ccco1)CC1CCCO1 (stereo not drawn) | – | inconclusive: 29.1 µM [falling, single point]
Cc1ccc(NC(=O)c2ccc(OCc3c(C)noc3C)cc2)cc1C | – | active: 18.4 µM
CC(C)(C)C(=O)Nc1sc2c(c1-c1nc3ccccc3[nH]1)CCCC2 | – | inconclusive: 20.6 µM [falling, partial curve, poor fit]
CC(C)C(=O)Nc1cccc2nsnc12 | – | inconclusive: 20.6 µM [falling, partial curve, poor fit]
CCc1ccc(C(=O)Cn2ccsc2=N)cc1 | – | inconclusive: 20.6 µM [activator, partial curve]
Cc1ccc(CSc2nnc(SCC(=O)N/N=C/C=C/c3ccccc3[N+](=O)[O-])s2)cc1 | – | inconclusive: 2.59 µM [falling, full curve]
COc1cccc(C2c3c(ncn(-c4ccccn4)c3=N)Oc3ccc4ccccc4c32)c1 (stereo not drawn) | – | inconclusive: 18.4 µM [falling, single point]
O=C(Nc1nncs1)C1CC(=O)N(CCc2ccc(F)cc2)C1 (stereo not drawn) | – | inconclusive: 23.1 µM [activator, single point]
CCOC(=O)Cc1n[nH]c(=O)c2ccccc12 | – | inconclusive: 14.6 µM [falling, partial curve, poor fit]
COc1ccc(-c2cc(C(=O)NCc3ccco3)no2)cc1OC | – | inconclusive: 0.103 µM [falling, partial curve, poor fit]
COC(=O)Nc1nc2ccc(SC(C)C)cc2[nH]1 | – | inconclusive: 23.1 µM [activator, partial curve]
Clc1ccc2nc(-c3ccccc3)cn2c1 | – | inconclusive: 1.16 µM [activator, partial curve]
COc1ccc(/C=N/NC(=O)c2ccc(CN3c4cccc5cccc(c45)S3(=O)=O)cc2)cc1 | inactive: -9.18% | –
Cc1ccc(OCC(=O)NNC(=O)C(C)Sc2ncnc3sc(C)c(C)c23)cc1 (stereo not drawn) | – | inconclusive: 6.51 µM [falling, single point]
COc1ccc(/C=C/C(=O)NCc2cnn(C)c2C)cc1COc1ccc(Br)cc1 | – | inconclusive: 18.4 µM [falling, partial curve, poor fit]
COc1ccc(S(=O)(=O)N2CCCC2=O)cc1N(C)S(C)(=O)=O | – | inconclusive: 4.11 µM [activator, partial curve, poor fit]
COc1ccc(CNS(=O)(=O)c2ccc(-c3cc(C(F)(F)F)on3)s2)cc1OC | – | inconclusive: 25.9 µM [falling, single point]
CC(C)(C)NC(=O)Nc1ccc2nccnc2c1 | inactive: 20.1% | –

Compound | activity change, negative = inhibition | Potency
O=C(Nc1cccc(F)c1)c1cnc2sc(N3CCCC3)nn2c1=O | – | inconclusive: 29.1 µM [falling, partial curve, poor fit]
CCNC(=O)C(=O)Nc1ccc([N+](=O)[O-])cc1 | – | inconclusive: 6.51 µM [activator, full curve, poor fit]
COc1cc(CNc2ccccc2SC)cc(OC)c1OC | – | inconclusive: 14.6 µM [falling, partial curve, poor fit]
N#Cc1nc(Nc2cc(F)cc(F)c2)c2ncn(CC(F)F)c2n1 | – | inactive and inconclusive: 6.51 µM [activator, single point]
Cn1nnc(NC(=S)NC(=O)c2ccco2)n1 | inactive: -11.2% | –
COc1cc(C2C=C(C(=O)O)Nc3ncnn32)ccc1O (stereo not drawn) | inactive: 1.85% | –
O=C(NC1CCCC1)C(c1ccc(Cl)cc1)N(Cc1ccc(F)cc1)C(=O)CCl (stereo not drawn) | inactive: -7.15% | –
COC(=O)c1ccccc1NC(=O)C1CCN(c2ncnc3c2nc2n3CCCCC2)CC1 | – | inconclusive: 20.6 µM [falling, single point]
O=C(CSc1nc2ccccc2[nH]1)NCc1ccccc1 | – | inconclusive: 7.31 µM [activator, partial curve, poor fit]
CC(=O)Nc1ccc2nc(-c3cccs3)[nH]c2c1 | – | inconclusive: 29.1 µM [activator, single point]
COc1ccc(CSc2nnnn2-c2ccc(O)cc2)cc1F | – | active: 14.6 µM
COc1ccc(C2Nc3ccccc3C(=O)N2Cc2ccc(C(C)(C)C)cc2)cc1COc1ccc(NC(C)=O)cc1 (stereo not drawn) | – | active: 18.4 µM
O=[N+]([O-])c1ccc(NCc2ccccc2N2CCC(CO)CC2)nc1 | inactive: -19.4% | –
Cc1ccc(C(=O)Nc2ccc3c(c2)OCO3)cc1 | – | inconclusive: 0.164 µM [activator, full curve, poor fit]
O=C(COc1ccccc1Cl)c1ccc2c(c1)CCCC2 | – | inconclusive: 20.6 µM [activator, single point]
CCCn1c(N)c(C(=O)CSc2nnc(-c3ccco3)n2Cc2ccccc2)c(=O)[nH]c1=O | – | inconclusive: 3.26 µM [falling, partial curve, poor fit]
CCOC(=O)c1ccc(N2C(=O)c3n[nH]c(-c4ccco4)c3C2c2ccccc2OC)cc1 (stereo not drawn) | – | active: 25.9 µM
CN(C)c1ccc(/C=C/C(=O)c2ccccc2O)cc1 | – | inconclusive: 20.6 µM [activator, partial curve]
COc1ccc(-c2cc(C(=O)NCc3cccnc3)no2)cc1OC | – | inconclusive: 0.0041 µM [falling, full curve, poor fit]
CCN1/C(=C/C=C/c2oc3ccc(-c4ccccc4)cc3[n+]2CC)Oc2ccc(-c3ccccc3)cc21 | – | active: 5.8 µM
Fc1ccccc1-c1csc(-c2cccnc2)n1 | – | inconclusive: 23.1 µM [activator, single point]
COc1cccc(/C=N/NC(=O)c2c(C)nc3ccc(Br)cn23)c1O | – | inconclusive: 20.6 µM [falling, partial curve]
COC(=O)c1c(NC(=O)/C=C/C(=O)O)sc(C)c1-c1ccc(C(C)C)cc1 | – | inconclusive: 0.517 µM [falling, partial curve, poor fit]

A second format for 2 compounds above:
O=[N+]([O-])c1ccc(NCc2ccccc2N2CCC(CO)CC2)nc1
  activity change, negative = inhibition: inactive: -19.4%
Cc1ccc(C(=O)Nc2ccc3c(c2)OCO3)cc1
  Potency: inconclusive: 0.164 µM [activator, full curve, poor fit]

The list goes on:

Compound | activity change, negative = inhibition | Potency
Cn1c(=O)c2c(nc(N3CCCCCC3)n2Cc2cccc3ccccc23)n(C)c1=O | – | inconclusive: 13 µM [falling, partial curve, poor fit]
CC(C)Sc1nc2c(c(=O)[nH]c(=O)n2C)n1CCc1ccccc1 | inactive: -12.2% | –
Cc1ccc(S(=O)(=O)NC(C)(C)CN2CCc3ccccc3C2)cc1 | – | inconclusive: 4.61 µM [falling, single point]
Cc1ccc(-n2ncc3c(NCc4cccnc4)ncnc32)c(C)c1 | – | active: 9.2 µM
Cc1ccc(-c2noc(-c3ccc(N4CCCC4)c([N+](=O)[O-])c3)n2)cc1 | – | inconclusive: 29.1 µM [activator, single point]
CCC(C)Sc1nnc(NC(=O)C2CCN(C(=O)c3ccco3)CC2)s1 (stereo not drawn) | – | inconclusive: 29.1 µM [falling, single point]
Cc1ccc(-c2nnn(CC(=O)Nc3ccc4nn(-c5ccccc5)nc4c3)n2)o1 | inactive: 0% | –
Cc1ccc(C(=O)N2CCN(c3ccc(NC(=O)COc4ccccc4C)cc3)CC2)cc1 | – | active: 20.6 µM
O=C(Nc1ccccc1)Nc1ccc(Oc2cccnc2)nc1 | – | inconclusive: 29.1 µM [falling, single point]
CC(C)C(=O)Nc1nc2cc3c(cc2s1)OCCO3 | – | inconclusive: 1.84 µM [activator, partial curve]
O=C(c1ccc(CSc2nc3ccncc3[nH]2)cc1)N1CCN(c2cccc(Cl)c2)CC1 | – | active: 20.6 µM
CN(C)/C=C/C(=O)c1ccc(N2CCN(c3ncc(C(F)(F)F)cc3Cl)CC2)cc1 | – | inconclusive: 18.4 µM [falling, single point]
c1ccc(-c2noc(CSc3nnnn3-c3ccccc3)n2)cc1 | – | inconclusive: 6.51 µM [falling, single point]
CC1CCc2c(sc3ncnc(N4CCOCC4)c23)C1 (stereo not drawn) | – | inconclusive: 0.231 µM [falling, full curve, poor fit]
CC(=O)C(Cl)C(=O)Nc1ccccc1 (stereo not drawn) | – | inconclusive: 18.4 µM [falling, partial curve, poor fit]
COC(=O)C(=Cc1ccc(-c2ccsc2C(=O)OC)o1)C(=O)OC | inactive: 1.39% | –
Cc1cc(OCC(=O)NC2CC2)c2c(C)c(C)c(=O)oc2c1 | – | inconclusive: 1.16 µM [falling, full curve]
CC(C)c1ccc(-n2nnnc2SCC(=O)NC2CC2)cc1 | inactive: -12.2% | –
CC(CNC(=O)COc1ccccc1)OC(=O)Nc1ccc(Cl)c(Cl)c1 (stereo not drawn) | – | inconclusive: 25.9 µM [falling, single point]
CCn1c(Cc2cccs2)nnc1SCC(=O)NC(C)(C)C | – | inconclusive: 1.3 µM [activator, full curve]
CN(C(=O)CSc1nc(-c2ccccc2)cn1N)C(c1ccccc1)c1ccccc1 | – | inconclusive: 18.4 µM [falling, single point]
CCOc1cccc(C2C(C(=O)c3ccc(C)o3)=C(O)C(=O)N2c2nccs2)c1 (stereo not drawn) | inactive: -12% | –

Rewritten in markdown: part of the list above

| Compound | activity change, negative = inhibition | Potency |
| --- | --- | --- |
| Cc1ccc(-c2noc(-c3ccc(N4CCCC4)c([N+](=O)[O-])c3)n2)cc1 | – | inconclusive: 29.1 µM [activator, single point] |
| CC(CNC(=O)COc1ccccc1)OC(=O)Nc1ccc(Cl)c(Cl)c1 (stereo not drawn) | – | inconclusive: 25.9 µM [falling, single point] |
